Laboratory results as given in US20090005294A1 (CENTRO DE INGENIERIA GENETICA Y BIOTECNOLOGIA, published 2009).
No constants are given. Whether binding was seen depends on the method and setting. Some results given as binding are weak or reduced against the parent protein; the word gives no strength.

Chains of the proteins cited; added tags and fusions are not shown. Lines headed by an entry give the natural chain unless they say otherwise; changes in a name come on top.
UniProt P03129: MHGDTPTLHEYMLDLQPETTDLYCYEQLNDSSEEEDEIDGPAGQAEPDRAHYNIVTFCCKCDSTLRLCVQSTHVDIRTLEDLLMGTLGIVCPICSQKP

Target: synthetic 28-38 region of HPV-16 E7 oncoprotein (HPV-16) (UniProt P03129)
Experiment: phage library screening; peptide on P8 of filamentous phage, biotinylated target on a solid surface, immunodetection with anti-P8 antibody

binding, binds:
CSVRQGPVQKC (cyclic; two cysteines engaged in a disulfide (S-S) bridge) [cyclic peptide (a) …]
CFQPLTPLCRC (cyclic; two cysteines engaged in a disulfide (S-S) bridge) [cyclic peptide (j) …]
CQSYHELLLQC (cyclic; two cysteines engaged in a disulfide (S-S) bridge) [cyclic peptide (k) …]
CSSCQNSPALC (cyclic; two cysteines engaged in a disulfide (S-S) bridge) [cyclic peptide (b) …]
CQIPQRTATRC (cyclic; two cysteines engaged in a disulfide (S-S) bridge) [cyclic peptide (c) …]
CAKQRTDPGYC (cyclic; two cysteines engaged in a disulfide (S-S) bridge) [cyclic peptide (d) …]
CWMSPRHLGTC (cyclic; two cysteines engaged in a disulfide (S-S) bridge) [cyclic peptide (e) …]
CRNCTVIQFSC (cyclic; two cysteines engaged in a disulfide (S-S) bridge) [cyclic peptide (f) …]
CHYIAGTVQGC (cyclic; two cysteines engaged in a disulfide (S-S) bridge) [cyclic peptide (g) …]
CPLVSLRDHSC (cyclic; two cysteines engaged in a disulfide (S-S) bridge) [cyclic peptide (h) …]
CKQSYLHHLLC (cyclic; two cysteines engaged in a disulfide (S-S) bridge) [cyclic peptide (i) …]
